Assay results taken from PubChem BioAssay AID493014 (National Center for Advancing Translational Sciences (NCATS), 2011).
Some of the results follow. The main result of the screen is listed elsewhere. These columns were measured beside it and carry no call. The list favours compounds with an active or inconclusive main result. Potencies come from curve fits of mixed quality, noted in brackets.

Assay: qHTS Assay to Find Inhibitors of Chronic Active B-Cell Receptor Signaling
Conditions: ABC-DLBCL IkBa-CBG/CBR reporter, luminescence ratio (green luciferase fused to IkBa over red control in TMD8 lymphoma cells), 4 h
How it was run: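 Doxycycline induced both beetle luciferases in TMD8 lymphoma cells; IKK-driven degradation limits the IkappaBalpha-fused green signal, while red luminescence normalises for cell number and nonspecific effects. Compounds tested up to 46 uM, 4 hrs.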

[1] = measured here: CBR red luminescence, cell number
[2] = measured here: IkBa-CBG green luminescence

Structure (SMILES) | AC50 [1] | AC50 [2]
Cc1ccc(CN(CC(=O)NCc2ccccn2)S(=O)(=O)c2ccccc2)cc1 | 35.5 µM [falling, partial curve, poor fit] | 
O=C(CCCN1C(=O)/C(=C/c2ccccc2Cl)SC1=S)Nc1cccnc1 | 2.82 µM [falling, full curve] | 
NC(=O)c1ccc(-n2nnnc2Oc2ccccc2)cc1 | 23.1 µM [falling, single point] | 29.1 µM [rising, partial curve, poor fit]
Cc1ccc(CNC(=O)CCNS(=O)(=O)c2ccc(C)cc2)cc1 | 20.6 µM [rising, single point] | 
COc1cccc([C@@H]2Oc3ccc(OC)cc3C(=O)[C@H]2OC(=O)Nc2cc(OC)c(OC)c(OC)c2)c1 | 2.59 µM [rising, full curve, poor fit] | 
Clc1ccc(C2=Nn3c(nnc3-c3n[nH]c4c3CCC4)SC2)cc1 |  | 6.31 µM [falling, partial curve, poor fit]
Cc1ccnc(NC(=O)C2CCN(S(=O)(=O)c3c(C)c(C)cc(C)c3C)CC2)c1 | 35.5 µM [falling, single point] | 
CCC(=O)N(C)CCc1cc2c(c(OC)c1/C=N/NC(=O)[C@H]1C[C@@H]1c1ccccc1)OCO2 | 22.4 µM [falling, single point] | 
CC(OC(=O)/C=C/c1ccco1)C(=O)Nc1cccc([N+](=O)[O-])c1 (stereo not given) | 29.1 µM [rising, single point] | 
COc1cc2c(cc1OC)CN(C(=O)c1nn(Cc3ccccc3)c(=O)c3ccccc13)CC2 | 9.2 µM [falling, partial curve] | 
COc1cccc(CNC(=O)Cn2c(=O)n3nc(-c4cccc(C)c4)nc3c3ccccc32)c1 | 12.6 µM [rising, partial curve, poor fit] | 
O=C(CCC(=O)OCC(=O)c1ccc(-c2ccccc2)cc1)Nc1cccc(Cl)c1 | 17.8 µM [rising, single point] | 
CCC(C)(C)NC(=O)C(c1ccc(O)cc1)N(CCOC)C(=O)CCC(=O)Nc1nccs1 (stereo not given) | 7.08 µM [rising, full curve, poor fit] | 
CC(=O)N1N=C(c2cccs2)CC1c1ccc(C)o1 (stereo not given) | 20 µM [rising, partial curve, poor fit] | 
CSc1ccc(-c2nnn(Cc3ccc(Br)cc3)n2)cc1 | 1.16 µM [rising, full curve, poor fit] | 
CC(C)CCNC(=O)NC(=O)CSc1nnc(COc2ccccc2Cl)o1 | 3.66 µM [rising, single point] | 
O=c1oc2ccc3ccccc3c2c2c1SC(C(F)(F)F)C2 (stereo not given) | 20.6 µM [rising, single point] | 
CC(C)c1[nH]nc2c1C1(CCN(Cc3ccccc3)CC1)C(C#N)=C(N)O2 | 29.1 µM [falling, single point] | 
Cc1cc2occ(CC(=O)N(C)CC(=O)Nc3ccccc3C(F)(F)F)c2cc1C | 25.9 µM [rising, partial curve] | 
CCn1nnc2cc(C(=O)Nc3cc(OC)cc(OC)c3)ccc21 | 6.51 µM [falling, partial curve, poor fit] | 

3 entries already listed, ordered by count of non-hydrogen atoms, low to high.
Structure (SMILES) | AC50 [1] | AC50 [2]
Cc1ccc(CN(CC(=O)NCc2ccccn2)S(=O)(=O)c2ccccc2)cc1 | 35.5 µM [falling, partial curve, poor fit] | 
O=C(CCC(=O)OCC(=O)c1ccc(-c2ccccc2)cc1)Nc1cccc(Cl)c1 | 17.8 µM [rising, single point] | 
COc1cccc([C@@H]2Oc3ccc(OC)cc3C(=O)[C@H]2OC(=O)Nc2cc(OC)c(OC)c(OC)c2)c1 | 2.59 µM [rising, full curve, poor fit] | 

The list goes on.

Structure (SMILES) | AC50 [1] | AC50 [2]
c1ccc(Oc2nc(-c3ccccn3)nc3ccccc23)cc1 | 17.8 µM [falling, single point] | 
CCOC(=O)CSc1cccc2cccnc12 | 29.1 µM [falling, single point] | 
Cc1ccccc1NC(=S)NC1CCCC1 | 14.1 µM [rising, partial curve, poor fit] | 
COc1cc2[nH]c(=S)nc(NC3CCCC3)c2cc1OC | 35.5 µM [falling, single point] | 
Cc1nc2cc(NC(=O)C3COc4ccccc4O3)ccc2s1 (stereo not given) | 0.126 µM [rising, full curve, poor fit] | 
O=C(Nc1cccc(Cl)c1)OCc1ccccn1 | 22.4 µM [falling, single point] | 
Cc1ccccc1/C=C\c1nc2ccccc2c(=O)[nH]1 | 5.01 µM [falling, full curve] | 
S=C(NCCc1ccccc1)Nc1ccc(Cl)cc1 | 1.84 µM [rising, partial curve, poor fit] | 
Cc1nn(-c2ccccc2)c2c1C(c1ccc([N+](=O)[O-])cc1)N1C(=N2)C(=O)Nc2ccccc21 (stereo not given) | 20.6 µM [falling, single point] | 
CC1=C(C(=O)Nc2ccccc2)C(c2ccc(Cl)cc2)n2c(s/c(=C/c3cccc(OCC(=O)O)c3)c2=O)=N1 (stereo not given) | 25.1 µM [falling, single point] | 
COc1cccc(N2CCN(c3nc(C)cc(C)c3C#N)CC2)c1 | 3.55 µM [rising, single point] | 
O=C(Nc1nc(-c2ccccc2)cs1)c1ccc(S(=O)(=O)N2CCc3ccccc32)cc1 | 1.16 µM [falling, full curve] | 
CSc1ccccc1OCc1cc(C(=O)N(C)Cc2cnccn2)no1 | 7.08 µM [falling, partial curve, poor fit] | 
CN1CCN(CC(=O)Nc2nc3ccccc3s2)CC1 | 5.01 µM [rising, single point] | 
Nc1nonc1C(=O)N/N=C/c1ccc(-c2cccc(C(=O)O)c2)o1 | 7.94 µM [falling, partial curve] | 
Cc1cc(-c2cccs2)nc(-n2cccc2)n1 | 0.2 µM [rising, full curve, poor fit] | 
Cc1ccc(-c2nc(C)sc2CC(=O)OCC(=O)Nc2c(F)cccc2F)cc1 | 0.517 µM [rising, full curve, poor fit] | 
C[C@H]1O[C@@H](O[C@H]2[C@@H](O)C[C@H](O[C@H]3[C@@H](O)C[C@H](O[C@H]4CC[C@@]5(C)[C@H](CC[C@@H]6[C@@H]5C[C@@H](O)[C@]5(C)[C@@H](C7=CC(=O)OC7)CC[C@]65O)C4)O[C@@H]3C)O[C@@H]2C)C[C@H](O)[C@@H]1O | 0.447 µM [falling, full curve, poor fit] | 
Cc1cccc(N2CCN(C(=O)c3ccc(NS(=O)(=O)c4c(C)noc4C)cc3)CC2)c1C | 25.9 µM [falling, single point] | 
